This passage reports binding results from patent US20250066499A1 (SUNSHINE GUOJIAN PHARMACEUTICAL SHANGHAI, published 2025).

Residue numbers refer to the chain shown, from its start. Numbers in names are those of the source. These are yes or no findings as the source states them, for the method shown. Some entries that bind do so weakly or less than the wild type. For some assays here: Sequences can lack the tags named with a protein.

In assay [1] the target is T1, human CD73-His protein (human, UniProt P21589 27-549).
T1 sequence: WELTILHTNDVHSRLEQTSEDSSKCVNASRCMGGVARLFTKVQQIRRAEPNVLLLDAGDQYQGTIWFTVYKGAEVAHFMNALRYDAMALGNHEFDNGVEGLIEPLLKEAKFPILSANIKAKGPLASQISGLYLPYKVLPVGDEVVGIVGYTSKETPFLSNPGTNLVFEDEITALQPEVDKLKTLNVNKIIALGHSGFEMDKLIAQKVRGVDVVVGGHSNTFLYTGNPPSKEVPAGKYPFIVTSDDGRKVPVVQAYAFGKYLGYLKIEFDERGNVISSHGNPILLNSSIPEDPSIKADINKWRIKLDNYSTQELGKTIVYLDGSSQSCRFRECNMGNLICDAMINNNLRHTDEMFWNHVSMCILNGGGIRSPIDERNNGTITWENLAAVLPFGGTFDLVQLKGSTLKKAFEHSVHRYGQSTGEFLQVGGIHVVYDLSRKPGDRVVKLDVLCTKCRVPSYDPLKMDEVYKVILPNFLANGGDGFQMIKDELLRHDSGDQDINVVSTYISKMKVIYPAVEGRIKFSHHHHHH
The assay can be described thus: ELISA, biotinylated CD73-His on streptavidin plate. (In general: An ELISA detects its analyte on a solid surface through an enzyme-linked reagent.)

Assay [2] deals with cynomolgus monkey CD73 protein (cynomolgus monkey). The assay can be described thus: SPR Biacore 8K, antibody captured on Protein A/G. A general note: In SPR one partner is held on a chip, and binding of the other changes the refractive index at the surface.
Assay [3] addresses T1, human CD73-His protein. The assay can be described thus: ELISA as in Example 3 (biotinylated CD73-His on streptavidin plate), absorbance 450 nm.
The target in assay [4] is T1, human CD73-His protein. Briefly: ELISA as in Example 3, antigen CD73-his, antibody titrated, absorbance 450 nm.
For assay [5], the target named is T1, human CD73-His protein. Briefly: indirect ELISA, biotinylated CD73-His captured on streptavidin-coated plate, HRP goat anti-mouse IgG, absorbance 450 nm.

B1: 56B10-HuV31 (antibody, human IgG4, V domains shown)
VH: QVQLQQSGAEVKKPGASVKVSCKASGYTFTRYYIYWVRQRPGQGLEWIGWIYPGNFNTKYNEKFKGRATLTADTSASTAYMELSSLTSEDTAVYYCARDVYDYAGFAYWGQGTLVTVSS
VL: DIQLTQSPSFLSASVGDRVTITCKASQGVATAVAWYQQKPGQSPKLLIYWASTRHTGVPDRFSGSGSGTEFTLTISSLQPEDFATYYCQQYSSYPWTFGQGTKVEIK
notes: Humanized
For B1, the binding result in assay [1], in assay [2], in assay [3] and in assay [4] was “binds” throughout.

B2: 56B10-HuV32 (antibody, human IgG4, V domains shown)
VH: B1 VH
VL: B1 VL with Q42K, S43A, D60S
notes: Humanized
As to B2, the binding result in assay [1] and in assay [3] was “binds” each time.

B3: 56B10-HuV23 (antibody, human IgG4, V domains shown)
VH: B1 VH with Q5V, A24T, R40A, T87R
VL: B1 VL with L4M, Q42K, D60S, Y87F
notes: Humanized
Turning to B3, the binding result in assay [1] and in assay [3] was “binds” each time.

B4: 56B10-HuV33 (antibody, human IgG4, V domains shown)
VH: B1 VH
VL: B1 VL with L4M, Q42K, D60S, Y87F
notes: Humanized
Take B4: the binding result in assay [1] and in assay [3] was “binds” throughout.

B5: 56B10-HuV21 (antibody, human IgG4, V domains shown)
VH: B1 VH with Q5V, A24T, R40A, T87R
VL: B1 VL
notes: Humanized
As for B5, the binding entry in assay [1] and in assay [3] was “binds” throughout.

B6: 56B10 (antibody, V domains shown)
VH: QVQLQQSGPELVKPGASVRISCKTSGYTFTRYYIYWVKQRPGQGLEWIGWIYPGNFNTKYNEKFKGKATLTADTSSSTAYMQLSSLTSEDSAVYFCARDVYDYAGFAYWGQGTLVTVSA
VL: DIVMTQSHRFLSTSVGDRVSITCKASQGVATAVAWYQQKPGQSPKLLIYWASTRHTGVPDRFTGSGSGTDFTLTISNVQSEDLADYFCQQYSSYPWTFGGGTKLEIK
notes: Murine hybridoma antibody; also called murine-derived antibody 56B10
For B6, the binding entry in assay [1] and in assay [5] was “binds” in each case.

B7: 56B10-ch (antibody, human IgG4 S228P, kappa, V domains shown)
VH: B6 VH
VL: DIVMTQSHRFLSTSVGDRVSITCKASQGVATAVAWYQQKPGQSPKLLIYWASTRHTGVPDRFTGSGSGTDFTLTISNVQSEDLADYFCQQYSSYPWTFGGGTKLEIKR
notes: Chimeric: murine variable regions spliced with human IgG4 (S228P) and human kappa constant regions; also called chimeric antibody 56B10-ch
B7: the binding entry in assay [3] is “binds”.

B8: 48A11-HuV23 (antibody, human IgG4, V domains shown)
VH: QVQLVQSGAEVKKPGASVKVSCKASGYTFTSYWMHWVRQAPGQGLEWIGEINPSIGRTNYNEKFKSRATLTVDKSTSTAYMELSSLRSEDTAVYYCARRVYGTMDYWGQGTLVTVSS
VL: DIQMTQSPSSLSASVGDRVTITCKASQDINSYLSWFQQKPGKSPKLLIYRANIWVDGVPSRFSGSGSGQDYTFTISSLQPEDIATYYCLQYDELYTFGQGTKVEIK
notes: Humanized
Turning to B8, the binding result in assay [1] and in assay [3] was “binds” in each case.

B9: 48A11-HuV22 (antibody, human IgG4, V domains shown)
VH: B8 VH
VL: B8 VL with L46T
notes: Humanized
Regarding B9, the binding result in assay [1] and in assay [3] was “binds” throughout.

B10: 48A11-HuV33 (antibody, human IgG4, V domains shown)
VH: B8 VH with A68V, V72R, K74T
VL: B8 VL
notes: Humanized
With B10, the binding entry in assay [1], in assay [2], in assay [3] and in assay [4] was “binds” each time.

B11: 48A11-ch (antibody, human IgG4 S228P, kappa, V domains shown)
VH: QVQLQQPGAELVKPGASVKLSCKASGYTFTSYWMHWVKQRPGQGLEWIGEINPSIGRTNYNEKFKSKATLTVDKSSSTAFMQLSSLTSEDSAVYYCARRVYGTMDYWGQGTSVTVSS
VL: DIKMTQSPSSMYASLGERVTITCKASQDINSYLSWFQQKPGKSPKTLIYRANIWVDGVPSRFSGSGSGQDYSLTISSLEYEDMGIYYCLQYDELYTFGGGTKLEIKR
notes: Chimeric: murine variable regions spliced with human IgG4 (S228P) and human kappa constant regions; also called chimeric antibody 48A11-ch
Take B11: the binding entry in assay [3] is given as “binds”.

B12: 48A11 (antibody, V domains shown)
VH: B11 VH
VL: DIKMTQSPSSMYASLGERVTITCKASQDINSYLSWFQQKPGKSPKTLIYRANIWVDGVPSRFSGSGSGQDYSLTISSLEYEDMGIYYCLQYDELYTFGGGTKLEIK
notes: Murine hybridoma antibody; also called murine-derived antibody 48A11
On to B12, for which the binding result in assay [1] and in assay [5] was “binds” in each case.
